± gives the standard deviation of the averaged measurements. Differences between knockout arms are mostly noise. Where a SMILES comes first, the peptide text is derived from it. The star is where a group is joined. Cbz = O=C(OCc1ccccc1)*
Test system: BT-20
Experiment: relative cell number vs DMSO control (72 h) (% of DMSO); higher = less growth inhibition (more cells)
Protocol: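 QMAP-Seq: a pool of 5 breast cancer cell lines (ZR-75-1, SKBR3, HCC-38, MDA-MB-231, BT-20), each carrying 12 doxycycline-inducible Cas9 sgRNA perturbations (11 knockouts plus non-targeting sgNT), was treated with compounds for 72 h at four 10-fold doses (10 nM-10 uM or 1 nM-1 uM range). Barcodes were amplified and sequenced, and cell number was interpolated from 293T spike-in standard curves. The result is expressed as % of the median of DMSO wells. Two biological replicates.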

[1] = sgRNA knockout: sgATF3, 1000 nM
[2] = sgRNA knockout: sgATF3, 10000 nM
[3] = sgRNA knockout: sgATF4, 1000 nM
[4] = sgRNA knockout: sgATF4, 10000 nM
[5] = sgRNA knockout: sgATF6, 1000 nM
[6] = sgRNA knockout: sgATF6, 10000 nM
[7] = sgRNA knockout: sgATG7, 1000 nM
[8] = sgRNA knockout: sgATG7, 10000 nM
[9] = sgRNA knockout: sgERN1, 1000 nM
[10] = sgRNA knockout: sgERN1, 10000 nM
[11] = sgRNA knockout: sgHSF1, 1000 nM
[12] = sgRNA knockout: sgHSF1, 10000 nM
[13] = sgRNA knockout: sgHSF2, 1000 nM
[14] = sgRNA knockout: sgHSF2, 10000 nM
[15] = sgRNA knockout: sgKEAP1, 100 nM
[16] = sgRNA knockout: sgKEAP1, 1000 nM
[17] = sgRNA knockout: sgKEAP1, 10000 nM
[18] = sgRNA knockout: sgNFE2L2, 10 nM
[19] = sgRNA knockout: sgNFE2L2, 100 nM
[20] = sgRNA knockout: sgNFE2L2, 1000 nM
[21] = sgRNA knockout: sgNFE2L2, 10000 nM
[22] = sgRNA knockout: sgSLC35F2, 10 nM
[23] = sgRNA knockout: sgSLC35F2, 100 nM
[24] = sgRNA knockout: sgSLC35F2, 1000 nM
[25] = sgRNA knockout: sgSLC35F2, 10000 nM
[26] = sgRNA knockout: sgXBP1, 1000 nM
[27] = sgRNA knockout: sgXBP1, 10000 nM

Structure (SMILES): Cc1cc2c(F)c(Oc3ncnn4cc(OC[C@@H](C)O)c(C)c34)ccc2[nH]1 [Brivanib]
- relative cell number (sgRNA knockout: sgATF3, 10 nM): 102 ± 1.1
- relative cell number (sgRNA knockout: sgATF3, 100 nM): 86 ± 7.7
- relative cell number [1]: 108 ± 3.4
- relative cell number [2]: 87.1 ± 7.9
- relative cell number (sgRNA knockout: sgATF4, 10 nM): 110 ± 16
- relative cell number (sgRNA knockout: sgATF4, 100 nM): 76.8 ± 8.6
- relative cell number [3]: 98.5 ± 8.1
- relative cell number [4]: 94.6 ± 5.6
- relative cell number (sgRNA knockout: sgATF6, 10 nM): 100 ± 19
- relative cell number (sgRNA knockout: sgATF6, 100 nM): 80.1 ± 4.7
- relative cell number [5]: 98.3 ± 9.3
- relative cell number [6]: 102 ± 23
- relative cell number (sgRNA knockout: sgATG7, 10 nM): 101 ± 13
- relative cell number (sgRNA knockout: sgATG7, 100 nM): 88.5 ± 2.5
- relative cell number [7]: 122 ± 6.3
- relative cell number [8]: 93 ± 3.2
- relative cell number (sgRNA knockout: sgERN1, 10 nM): 102 ± 29
- relative cell number (sgRNA knockout: sgERN1, 100 nM): 76.3 ± 5.7
- relative cell number [9]: 93.7 ± 6.3
- relative cell number [10]: 105 ± 9
- relative cell number (sgRNA knockout: sgHSF1, 10 nM): 112 ± 11
- relative cell number (sgRNA knockout: sgHSF1, 100 nM): 85.5 ± 10
- relative cell number [11]: 100 ± 5.2
- relative cell number [12]: 88.66 ± 0.52
- relative cell number (sgRNA knockout: sgHSF2, 10 nM): 106.5 ± 0.86
- relative cell number (sgRNA knockout: sgHSF2, 100 nM): 83 ± 14
- relative cell number [13]: 91.2 ± 14
- relative cell number [14]: 96.87 ± 0.63
- relative cell number (sgRNA knockout: sgKEAP1, 10 nM): 113 ± 24
- relative cell number [15]: 81.7 ± 1.9
- relative cell number [16]: 107.1 ± 0.2
- relative cell number [17]: 92.7 ± 15
- relative cell number [18]: 118 ± 11
- relative cell number [19]: 80.3 ± 18
- relative cell number [20]: 108 ± 16
- relative cell number [21]: 87 ± 12
- relative cell number [22]: 99.2 ± 6
- relative cell number [23]: 105 ± 8.3
- relative cell number [24]: 99.1 ± 7.5
- relative cell number [25]: 102 ± 13
- relative cell number (sgRNA knockout: sgXBP1, 10 nM): 108 ± 16
- relative cell number (sgRNA knockout: sgXBP1, 100 nM): 93.1 ± 18
- relative cell number [26]: 94.3 ± 10
- relative cell number [27]: 91.1 ± 11

Structure (SMILES): OCCn1cc(-c2ccc3c(c2)CC/C3=N\O)c(-c2ccncc2)n1 [GDC0879]
- relative cell number (sgRNA knockout: sgATF3, 10 nM): 115 ± 11
- relative cell number (sgRNA knockout: sgATF3, 100 nM): 96.6 ± 7
- relative cell number [1]: 103 ± 10
- relative cell number [2]: 103 ± 12
- relative cell number (sgRNA knockout: sgATF4, 10 nM): 95.9 ± 8.5
- relative cell number (sgRNA knockout: sgATF4, 100 nM): 94.8 ± 8.4
- relative cell number [3]: 122 ± 5.9
- relative cell number [4]: 111 ± 7.1
- relative cell number (sgRNA knockout: sgATF6, 10 nM): 86.2 ± 8.1
- relative cell number (sgRNA knockout: sgATF6, 100 nM): 103 ± 14
- relative cell number [5]: 114 ± 14
- relative cell number [6]: 96.5 ± 20
- relative cell number (sgRNA knockout: sgATG7, 10 nM): 99.9 ± 18
- relative cell number (sgRNA knockout: sgATG7, 100 nM): 104 ± 2.4
- relative cell number [7]: 102 ± 7.3
- relative cell number [8]: 119 ± 5.5
- relative cell number (sgRNA knockout: sgERN1, 10 nM): 95.5 ± 12
- relative cell number (sgRNA knockout: sgERN1, 100 nM): 107 ± 6.5
- relative cell number [9]: 113.4 ± 1.1
- relative cell number [10]: 120 ± 12
- relative cell number (sgRNA knockout: sgHSF1, 10 nM): 103 ± 22
- relative cell number (sgRNA knockout: sgHSF1, 100 nM): 117 ± 11
- relative cell number [11]: 107 ± 16
- relative cell number [12]: 94.1 ± 11
- relative cell number (sgRNA knockout: sgHSF2, 10 nM): 111 ± 8.5
- relative cell number (sgRNA knockout: sgHSF2, 100 nM): 110.2 ± 0.41
- relative cell number [13]: 125.3 ± 0.86
- relative cell number [14]: 112 ± 1.4
- relative cell number (sgRNA knockout: sgKEAP1, 10 nM): 88 ± 12
- relative cell number [15]: 99.7 ± 2.6
- relative cell number [16]: 112 ± 1.7
- relative cell number [17]: 111 ± 10
- relative cell number [18]: 111 ± 17
- relative cell number [19]: 117 ± 2.5
- relative cell number [20]: 119 ± 2.5
- relative cell number [21]: 124 ± 19
- relative cell number [22]: 85.2 ± 13
- relative cell number [23]: 100 ± 3.7
- relative cell number [24]: 114 ± 10
- relative cell number [25]: 97.2 ± 8.1
- relative cell number (sgRNA knockout: sgXBP1, 10 nM): 90.1 ± 21
- relative cell number (sgRNA knockout: sgXBP1, 100 nM): 117 ± 7
- relative cell number [26]: 108 ± 9.3
- relative cell number [27]: 110 ± 6.6

Structure (SMILES): CC(C)C[C@@H](C=O)NC(=O)[C@H](CC(C)C)NC(=O)[C@H](CC(C)C)NC(=O)OCc1ccccc1 [MG132] (Cbz-Leu-Leu-Leu-aldehyde)
- relative cell number (sgRNA knockout: sgATF3, 10 nM): 114 ± 2.5
- relative cell number (sgRNA knockout: sgATF3, 100 nM): 109 ± 12
- relative cell number [1]: 26.5 ± 0.63
- relative cell number [2]: 15.4 ± 1.7
- relative cell number (sgRNA knockout: sgATF4, 10 nM): 91.2 ± 2.5
- relative cell number (sgRNA knockout: sgATF4, 100 nM): 101.4 ± 0.52
- relative cell number [3]: 31.3 ± 3.9
- relative cell number [4]: 18.4 ± 0.74
- relative cell number (sgRNA knockout: sgATF6, 10 nM): 99.8 ± 8.3
- relative cell number (sgRNA knockout: sgATF6, 100 nM): 99.9 ± 19
- relative cell number [5]: 27.6 ± 6.5
- relative cell number [6]: 17.4 ± 4.2
- relative cell number (sgRNA knockout: sgATG7, 10 nM): 100 ± 4.1
- relative cell number (sgRNA knockout: sgATG7, 100 nM): 96.1 ± 26
- relative cell number [7]: 31.9 ± 0.68
- relative cell number [8]: 18.5 ± 2.4
- relative cell number (sgRNA knockout: sgERN1, 10 nM): 97 ± 12
- relative cell number (sgRNA knockout: sgERN1, 100 nM): 92.6 ± 12
- relative cell number [9]: 31.2 ± 5.4
- relative cell number [10]: 19.36 ± 0.046
- relative cell number (sgRNA knockout: sgHSF1, 10 nM): 85.8 ± 2.8
- relative cell number (sgRNA knockout: sgHSF1, 100 nM): 99.5 ± 8
- relative cell number [11]: 28.6 ± 7.1
- relative cell number [12]: 21.2 ± 2.1
- relative cell number (sgRNA knockout: sgHSF2, 10 nM): 94.5 ± 7.2
- relative cell number (sgRNA knockout: sgHSF2, 100 nM): 100 ± 6.6
- relative cell number [13]: 28.1 ± 7.1
- relative cell number [14]: 20.1 ± 4.3
- relative cell number (sgRNA knockout: sgKEAP1, 10 nM): 91.7 ± 2.3
- relative cell number [15]: 98 ± 17
- relative cell number [16]: 33.206 ± 0.023
- relative cell number [17]: 17.2 ± 1.7
- relative cell number [18]: 108 ± 11
- relative cell number [19]: 91.1 ± 8.9
- relative cell number [20]: 24.6 ± 3.6
- relative cell number [21]: 21.36 ± 0.14
- relative cell number [22]: 103 ± 26
- relative cell number [23]: 110 ± 2.2
- relative cell number [24]: 37.2 ± 0.56
- relative cell number [25]: 18.8 ± 1.6
- relative cell number (sgRNA knockout: sgXBP1, 10 nM): 110 ± 9
- relative cell number (sgRNA knockout: sgXBP1, 100 nM): 95 ± 15
- relative cell number [26]: 33.5 ± 1.8
- relative cell number [27]: 16.9 ± 6.2
